This is one part of the list. This data set is noisy: repeats of one test often differ as much as different tests do.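 The cells were human embryonic kidney cells carrying a Renilla luciferase gene, driven by the HSV-TK promoter, on a plasmid put in briefly by transfection. This is the first-round screen of about ten thousand compounds, looking for ones that raise reporter output.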

In this experiment the test system is HEK 293FT. The experiment can be described thus: log relative Renilla luciferase luminescence (reporter expression vs reference, reference not stated) (log (base not stated)); higher = higher recombinant reporter expression. The settings on record: 10 µM; time after transfection 48 h. As to the method:
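HEK 293FT cells transiently transfected with pRL-TK (Renilla luciferase) were treated with compounds at 10 uM and luminescence was read about 42 h later. Values are log relative Renilla luminescence (log base and reference not stated). Single-pass screen; ICCB Known Bioactives library.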
For `CCOC(=O)C1=C(C)NC(C)=C(C(=O)OC)C1c1cccc([N+](=O)[O-])c1` (stereo not given) [Nitrendipine], the log was -1.43.

For `Oc1cc(O)cc(/C=C/c2ccc(O)c(O)c2)c1` [Piceatannol], the log was -0.818.

Take `CCCCCCCCCCCCCCCC(=O)OCC(COP(=O)(O)O)OC(=O)CCCCCCCCCCCCCCC` (stereo not given) [Phosphatidic acid, dipalmitoyl]: the log is -0.0854.

For the compound `CC1=C(C)C(=O)C(CCCCC#CCCCC#CCO)=C(C)C1=O`, the log is -0.28.

With `CS(=O)(=O)Nc1ccc([N+](=O)[O-])cc1OC1CCCCC1`, the log was 0.0335.

For `O=C1CCC(N2C(=O)c3ccccc3C2=O)C(=O)N1` (stereo not given) [Thalidomide], the log is -0.00904.

For the compound `C=C1O[C@@](CO)(n2cnc3c(N)ncnc32)[C@H](O)[C@@H]1O` [Decoyinine], the log came to 0.322.

On to `CCCCCCCCCCCCC/C=C/[C@@H](O)[C@H](CO)NC(C)=O` [C2 Ceramide], for which the log was 0.0671.

For `CCCCC[C@H](O)/C=C/[C@H]1C=CC(=O)[C@@H]1C/C=C\CCCC(=O)O` [Prostaglandin A2], the log is -0.219.

Turning to `CNC(=O)[C@H](Cc1c[nH]c2ccccc12)NC(=O)[C@@H](CC(=O)NO)CC(C)C`, the log was found to be 0.239.

Consider `Oc1c2ccccc2c2c3c(cccc13)N=N2`, for which the log worked out at 0.0574.

On to `CC[C@H](CO)Nc1nc(NCc2ccccc2)c2ncn(C(C)C)c2n1` [Roscovitine], for which the log was -1.66.

For `c1ccc2c(Cc3c[nH]c4ccccc34)c[nH]c2c1` [Diindolylmethane], the log was -0.195.

As for `C/C=C1\C2C=C(C)CC1(N)c1ccc(=O)[nH]c1C2` (stereo not drawn) [Huperzine A [(-)-Huperzine A]], the log was -0.13.

Consider `CCCCC/C=C\C/C=C\CCCCCCCCCC(=O)O` [Eicosadienoic acid (20:2 n-6)], for which the log is -0.229.

Regarding `CCCC[C@@H](C=O)NC(=O)[C@H](CC(C)C)NC(=O)OCc1ccccc1` [Calpeptin], the log is -0.0949.

`CN(C)C[C@H](O)Cn1c2ccc(Br)cc2c2cc(Br)ccc21` (racemic) [Wiskostatin]: the log is -0.477.

`COc1ccc(CCN(C)CCc2ccc(OC)c(OC)c2)cc1OC`: the log stood at 0.12.

Regarding `CC(C)C[C@@H](C=O)NC(=O)[C@H](CC(C)C)NC(=O)[C@H](CC(C)C)NC(=O)OCc1ccccc1`, the log is -1.5.

On to `CC(C)(C)c1cc(O)c(C(C)(C)C)cc1O` [2,5-Ditertbutylhydroquinone], for which the log is -1.27.

As for `CCCCCC=CCC=CCC=CCC=CCCCCCC(=O)O` [Adrenic acid (22:4, n-6)], the log was 0.00897.

With `O=C(NCC1CCCCN1)c1cc(OCC(F)(F)F)ccc1OCC(F)(F)F` (stereo not given) [Flecainide], the log was -0.0297.

For `CC[C@@H]1/C=C(\C)C[C@H](C)C[C@H](OC)[C@H]2O[C@@](O)(C(=O)C(=O)N3CCCC[C@H]3C(=O)O[C@H](/C(C)=C/[C@@H]3CC[C@@H](O)[C@H](OC)C3)[C@H](C)[C@@H](O)CC1=O)[C@H](C)C[C@@H]2OC` [Ascomycin (FK-520)], the log is -0.514.

With `COC(=O)C1=C(C)NC(C)=C(C(=O)OCCN(C)Cc2ccccc2)C1c1cccc([N+](=O)[O-])c1` (stereo not given) [Nicardipine], the log is 0.09.

In the case of `CCCCC/C=C\C/C=C\CCCCCCCC(=O)O` [Linoleic acid], the log was -0.203.

As to `CCCCCC#CCC#CCC#CCC#CCCCC(=O)O` [5,8,11,14-Eicosatetraynoic acid], the log was determined as 0.219.

As to `O=c1[nH]c2cc(C(F)(F)F)ccc2n1-c1cc(C(F)(F)F)ccc1O`, the log is -0.0206.

Take `CCCCC/C=C\C\C=C/C=C/C=C/[C@@H](SC[C@H](N)C(=O)NCC(=O)O)[C@@H](O)CCCC(=O)O` [Leukotriene D4]: the log was -0.13.

In the case of `CCCCCCCCCCCCCCCCCCOC[C@@H](COP(=O)([O-])OCC[N+](C)(C)C)OC` [1-Octadecyl-2-methylglycero-3 PC], the log worked out at 0.0736.

For the compound `CCCCCCCC(=O)OC[C@H](CO)OC(=O)CCCCCCC` [1,2-Dioctanoyl-sn-glycerol], the log came out at 0.167.

In the case of `CC(=O)N[C@@H](CSC/C=C(\C)CC/C=C(\C)CCC=C(C)C)C(=O)O` [Acetyl (N)-S-farnesyl-L-cysteine], the log was 0.0222.

Regarding `CC(C)(C)c1cc(C=C(C#N)C(N)=S)cc(C(C)(C)C)c1O`, the log is -0.675.

As to `Cc1c(C(=O)NN2CCCCC2)nn(-c2ccc(Cl)cc2Cl)c1-c1ccc(I)cc1`, the log was 0.0452.

As to `CC(C)NCC(O)COc1cccc2ccccc12` (stereo not given) [Propranolol (S-)], the log is -0.254.

Take `COc1cc(C=C(C#N)C(N)=O)cc(CSc2nc3ccccc3s2)c1O` [Tyrphostin AG-825]: the log amounted to 0.146.

For `CN(Cc1cnc2nc(N)nc(N)c2n1)c1ccc(C(=O)N[C@@H](CCC(=O)O)C(=O)O)cc1` [Methotrexate], the log was -0.604.

As to `CCCCC/C=C\C[C@@H](O)/C=C/C=C/C=C\[C@@H](O)CCCC(=O)O` [Leukotriene B4], the log came out at 0.135.

Turning to `CCCCCC1OC1CC=CCC=CCC=CCCCC(=O)O` (stereo not given) [14,15-Epoxyeicosatrienoic acid], the log was determined as 0.306.

Take `CN1CCN(CCCN2c3ccccc3Sc3ccc(C(F)(F)F)cc32)CC1` [Trifluoperazine]: the log is -0.0865.

As to `N#Cc1cc2c(OCC(O)CN3CCN(C(c4ccccc4)c4ccccc4)CC3)cccc2[nH]1` (stereo not given), the log is -0.245.

Source of the values: the supplement of paper PMC7024190.
